No constants are given. Whether binding was seen depends on the method and setting. Binding calls can cover weak binding; strength is not graded here.
Target: kallikrein (Homo sapiens (Human))
Experiment: phage display selection

B1: PEP-1 KI polypeptide (designed binder)
chain: EAMHSFCAFKADDGPCRAAHPRWFFNIFTRQCEEFIYGGCEGNQNRFESLEECKKMCTRD
notes: also called DX88
In the case of B1, the binding is reported as “binds”.

From patent publication US20040053206A1 (DYAX, published 2004)
